Experimental data as given in PubChem BioAssay AID2417 (National Center for Advancing Translational Sciences (NCATS), 2010).
In all, about 140,000 compounds went through this assay and about 4,300 (3.1%) were called active. This list was built around the results that the source calls inconclusive (neither active nor inactive); the mix of calls is not that of the screen.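 Rule for the calls: active = readout at or below -70, meaning at least 70% loss of cells showing the perinucleolar compartment, a nuclear body marking cancer cells; inconclusive = readout between -30 and a set limit; inactive = the rest.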

Test: High Content Assay for Compounds that inhibit the Assembly of the Perinucleolar Compartment;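 note: plate controls were DMSO wells for no effect and camptothecin positive control wells for full effect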
Conditions: PC3M PTB-GFP, PNC prevalence imaging, 16 h; at 10 µM; active compounds read low
In short: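 Compounds are pinned in duplicate onto adhered PC3M cells stably expressing GFP-tagged PTB and incubated 16 h at 37 C. Cells are then fixed, nuclei stained with Hoechst, and PNC-positive cells counted.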

SMILES | activity change (PNC), negative = inhibition
COc1ccc(S(=O)(=O)N2CCC(N3CCCCC3)CC2)cc1 | inactive: 7.68%
CC(NC(=O)/C(C#N)=C/c1ccc(Cl)c([N+](=O)[O-])c1)c1ccccc1 (centres undefined) | active: -100%
CCc1ccc2[nH]c(=O)c(CN(CCO)C(=O)NCc3ccccc3)cc2c1 | inconclusive: -41.9%
COc1cc(OC)cc(-c2nc3ccccc3c(=O)o2)c1 | inconclusive: -30.7%
O=C(NN=C1CCN(Cc2ccccc2)CC1)c1cc2ccccc2cc1O | inconclusive: -58%
CN(C(=O)COc1cc(=O)n(C)c2ccccc12)c1ccc(Cl)cc1 | inactive: 11.5%
CCOc1ccccc1N(CC(=O)NC(C)(C)C)C(=O)c1ccc(CN2CCOCC2)o1 | inconclusive: -53.6%
Cc1ccc2nc(-c3ccc(NC(=O)COC(=O)c4ccc(=O)[nH]c4)cc3)sc2c1 | inactive: -0.846%
CCOc1ccc(OCC)c(Nc2cc(C)nc3nc(C)nn23)c1 | inactive: 29.5%
Cc1cc(/C=N/n2cnnc2)c(C)n1-c1ccc2c(c1)OCO2 | inconclusive: -76.7%
CC(=O)N=c1sc2nc3ccccc3nc2n1N(C(C)=O)C(C)=O | inactive: -4.15%
CC(C)=NNc1nc(-c2ccccc2)cs1 | inactive: 17%
COc1ccc(C(=O)NC(=S)N2CC(C)OC(C)C2)cc1 (centres undefined) | inactive: 0.346%
CC(C)CSc1nc2ccccc2c(=O)[nH]1 | inconclusive: -49.4%
CCOc1cc(CNc2ccc(S(N)(=O)=O)cc2)cc(Cl)c1OC | inconclusive: -64%
COc1cc(OC)c(-c2nn3c(C4CCCCC4)nnc3s2)cc1OC | inactive: 2.51%
CCNC(=S)N(CCc1ccccc1C)Cc1cc2cc(OC)c(OC)cc2[nH]c1=O | inconclusive: -35.8%
CC1CCCCC1NC(=O)/C(C#N)=C/c1ccc2c(c1)OCCO2 (centres undefined) | inconclusive: -42.5%
Cc1c(C)n(C(=O)CSc2ncn[nH]2)c2ccccc12 | inconclusive: -33.2%
CCCCc1nnc(NC(=O)C2CC(=O)N(c3ccc4c(c3)OCCO4)C2)s1 (centres undefined) | inactive: 9.98%
CCN(CC)S(=O)(=O)c1cc(NC(=O)C(=O)c2c(-c3ccccc3)cc3ccccn23)ccc1C | inconclusive: -47%
Cc1ccc(NC(=O)N/C=C/c2ccccc2)cc1 | inconclusive: -41.7%

Some of the entries above in another layout:

| SMILES | activity change (PNC), negative = inhibition |
| --- | --- |
| COc1ccc(S(=O)(=O)N2CCC(N3CCCCC3)CC2)cc1 | inactive: 7.68% |
| CC(NC(=O)/C(C#N)=C/c1ccc(Cl)c([N+](=O)[O-])c1)c1ccccc1 (centres undefined) | active: -100% |
| CCc1ccc2[nH]c(=O)c(CN(CCO)C(=O)NCc3ccccc3)cc2c1 | inconclusive: -41.9% |
| COc1cc(OC)cc(-c2nc3ccccc3c(=O)o2)c1 | inconclusive: -30.7% |
| O=C(NN=C1CCN(Cc2ccccc2)CC1)c1cc2ccccc2cc1O | inconclusive: -58% |
| CN(C(=O)COc1cc(=O)n(C)c2ccccc12)c1ccc(Cl)cc1 | inactive: 11.5% |
| CCOc1ccccc1N(CC(=O)NC(C)(C)C)C(=O)c1ccc(CN2CCOCC2)o1 | inconclusive: -53.6% |
| Cc1ccc2nc(-c3ccc(NC(=O)COC(=O)c4ccc(=O)[nH]c4)cc3)sc2c1 | inactive: -0.846% |
| CCOc1ccc(OCC)c(Nc2cc(C)nc3nc(C)nn23)c1 | inactive: 29.5% |
| Cc1cc(/C=N/n2cnnc2)c(C)n1-c1ccc2c(c1)OCO2 | inconclusive: -76.7% |
| CC(=O)N=c1sc2nc3ccccc3nc2n1N(C(C)=O)C(C)=O | inactive: -4.15% |

Additional structures follow.

SMILES | activity change (PNC), negative = inhibition
Cc1ccc(-c2c(C(=O)N(C)Cc3ccccc3)oc(=O)c3ccccc23)cc1 | inactive: 27.8%
CCOC(=O)CN1C(=O)C(=O)c2cccc(C)c21 | inconclusive: -60.1%
COc1ccc(C(=O)c2c(C(F)(F)F)oc3c2C(=O)c2ccccc2C3=O)cc1OC | inconclusive: -69.3%
CCOC(=O)N1CCN(S(=O)(=O)c2ccc(C(=O)Nc3nnc(CC)o3)cc2)CC1 | active: -82.5%
O=c1cc(-c2cccc(F)c2)[nH]c2ccccc12 | active: -91.5%
O=C(N/C(=C\c1ccc(Br)cc1)c1nc2ccccc2[nH]1)c1ccco1 | inactive: 61.6%
COc1ccc(OC)c(S(=O)(=O)N2CCC(C(=O)Nc3cc(C)ccc3C)CC2)c1 | inactive: -18%
Cc1[nH]c(=O)c(C#N)c2c1CSC(C)(C)C2 | active: -100%
CC(=O)Nc1cccc(OC(=O)N2CCOCC2)c1 | inconclusive: -33.8%
O=C(CSc1ncn(-c2ccccc2)n1)Nc1ccc2c(c1)OCCO2 | active: -86.1%
FC(F)(F)C(Oc1nc(Nc2ccc(Cl)cc2)nc(N2CCOCC2)n1)C(F)(F)F | inconclusive: -50.5%
CCn1c(NC2CCCCC2)nc2ccccc21 | inconclusive: -54.6%
CC(NS(C)(=O)=O)C(c1cccs1)N1CCN(Cc2ccccc2)CC1 (centres undefined) | inconclusive: -33.9%
CC(=O)c1ccc(N2CCN(C(=O)c3cc(-c4ccc5c(c4)OCO5)nc4ccccc34)CC2)cc1 | inconclusive: -53.7%
Cc1ccc(NC(=O)c2sccc2SCc2cccc(C(F)(F)F)c2)cc1 | inactive: 54.1%
Cn1c(=O)n(CCN2CCOCC2)c(=O)c2c1nc1n2CCCN1c1ccccc1 | inactive: -7.12%
O=C(Nc1ccccc1C(F)(F)F)c1cc(S(=O)(=O)N2CCC3(CC2)OCCO3)ccc1F | inconclusive: -40.4%
Cc1cc(NC(=O)COC(=O)C2CCN(C(=O)c3ccc(Cl)cc3)CC2)no1 | inconclusive: -73.8%
Cc1cccc(OCCNc2cc(N3CCOCC3)ccc2[N+](=O)[O-])c1 | inconclusive: -76.1%
O=c1oc2c(O)c(O)cc3c(=O)oc4c(O)c(O)cc1c4c23 | inconclusive: -50.6%
Cc1ccc2c(Cl)cc(Cl)c(OCC(=O)OCC(=O)Nc3ccc(C#N)cc3)c2n1 | inactive: 17.9%
CCOC(=O)c1c(NC(=O)Cn2cnc3sc(C)c(-c4ccccc4)c3c2=O)sc(C)c1C | inactive: 7.12%
